Assay results taken from PubChem BioAssay AID2685 (National Center for Advancing Translational Sciences (NCATS), 2010).
Some of the results follow. Shown are side measurements of this screen, not its main read-out; they come without a call. Most of these compounds were active or inconclusive in the main read-out, so they are no random draw. Potencies come from curve fits of mixed quality, noted in brackets.

Assay: qHTS Assay for Lipid Storage Modulators in Drosophila S3 Cells;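 as to cell number change: cells counted by Cell Tracker Red CMTPX staining in the red channel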
Conditions: BODIPY lipid droplet fluorescence, 18-24 h; for cell number change: measured here: cell count max response, cells fed with added oleic acid
In short: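 Laser-scanning cytometry quantifies lipid droplet accumulation (500–530 nm total intensity; droplet/cell object ratio) in oleic acid-fed (400 uM added) Drosophila S3 cells treated with a concentration series. 20 uM Triacsin C defined 100% inhibition.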

[1] = measured here: cell number channel AC50, cells fed with added oleic acid
[2] = measured here: lipid fluorescence (Fed channel) AC50, cells fed with added oleic acid

## NC(=O)c1ccsc1NC(=O)COC(=O)c1ccc([N+](=O)[O-])o1
  cell number change: 0.258%

## COc1ccc(C2CC(C)(c3ccc(OC)cc3)Nc3ccccc3N2)cc1 (stereo unspecified)
  cell number change: 7.68%
[1]
  AC50: 4.11 µM [rising, partial curve, poor fit]

## CCOC(=O)C(CO)(NC(C)=O)C(=O)OCC
  cell number change: -7.75%
[2]
  AC50: 0.0651 µM [rising, full curve, poor fit]

## Cc1nnsc1C(=O)N1CCCC(Nc2ccc(F)c(F)c2)C1 (stereo unspecified)
  cell number change: 0.85%

## COC(=O)c1cccc(NC(=O)CSc2nc(O)c(-c3ccccc3)c(=O)[nH]2)c1
  cell number change: 163%
[1]
  AC50: 13 µM [rising, partial curve]

## CCCN1C(=O)SC(CC(=O)Nc2ccc(Br)cc2)C1=O (stereo unspecified)
[2]
  AC50: 3.26 µM [falling, partial curve]

## COc1ccc(N2CCN(C(=O)C(NC(=O)c3c(F)cccc3F)C(C)C)CC2)cc1 (stereo unspecified)
  cell number change: -2.42%

## C#CCOc1ccccc1C(N)=O
  cell number change: 3.31%

## COc1cc2c(cc1OC)C(c1ccc([N+](=O)[O-])cc1)NC(=O)C2 (stereo unspecified)
[2]
  AC50: 0.164 µM [falling, full curve, poor fit]

## CCOc1ccccc1C(=O)OCC(=O)NCC1CCCO1 (stereo unspecified)
  cell number change: -8.17%

## Cc1ccc2nc(NC(=O)C3CCN(S(=O)(=O)c4cccs4)CC3)sc2c1
  cell number change: 13.8%
[2]
  AC50: 0.461 µM [falling, partial curve, poor fit]

## Cc1cc(C)cc(NC(=O)COc2coc(CN3CCc4ccccc43)cc2=O)c1
  cell number change: 21.9%

## CCCCN1C(=O)C2C(C(=O)Nc3cccc(OC)c3)C3C=CC2(O3)C1C(=O)NC1CCCCC1C (stereo unspecified)
  cell number change: -28%
[2]
  AC50: 5.8 µM [falling, partial curve, poor fit]

## CCc1c(C)nc2c(OC)cccc2c1Cl
  cell number change: 33.2%
[1]
  AC50: 6.51 µM [rising, partial curve]
[2]
  AC50: 16.4 µM [rising, single point]

## Cc1ccc(CNC(=O)C(=O)c2cn(CC(=O)N3CCOCC3)c3ccccc23)cc1
  cell number change: 22.2%
[2]
  AC50: 10.3 µM [rising, partial curve]

## CCOC(=O)c1sc(N)c(C(=O)OCC)c1C
  cell number change: 0.516%
[2]
  AC50: 0.092 µM [rising, full curve, poor fit]

## COCCN1CN(S(=O)(=O)c2cccc(Cl)c2)c2nc3ccccc3nc21
[2]
  AC50: 2.59 µM [rising, partial curve, poor fit]

## COc1cc(OC)cc(C(=O)Nc2cc(C)nn2-c2ccccc2)c1
  cell number change: -45.7%
[1]
  AC50: 7.31 µM [falling, partial curve]

## O=C(NNC(=O)c1ccc2ncccc2c1)c1ccc(Cl)cc1
  cell number change: 15.4%

## COC(=O)C1C(O)=C(C=NC2CCCCC2)C(=O)CC1(C)C (stereo unspecified)
  cell number change: 0.897%
[2]
  AC50: 29.1 µM [falling, single point]
